This is an account of results in patent CN112048019A.

Sequences of proteins named here, by UniProt entry; tags and fusion partners are left off. Residues count along the entry.
UniProt Q08722, residues 19-139: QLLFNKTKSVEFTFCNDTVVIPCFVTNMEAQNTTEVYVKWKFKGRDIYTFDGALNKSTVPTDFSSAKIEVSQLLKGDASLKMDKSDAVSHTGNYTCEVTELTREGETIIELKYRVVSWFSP

The target in the experiment is CD47蛋白 (analyte in the ForteBio assay) (human) (UniProt Q08722). As to the kind of experiment: BLI (ForteBio). For orientation: BLI is a label-free optical method that tracks binding on a fibre tip over time.

These are yes or no findings as the source states them, for the method shown. Some results given as binding are weak or reduced against the parent protein; the word gives no strength.

B1: 抗CD47单克隆抗体3D8 (杂交瘤细胞株3D8, CGMCC No:17293) (antibody, V domains shown)
VH: EVKLQESGAELMKPGASVKISCKATGYTFSRYWIEWVKQRPGHGLEWIGDILPGTSNTNYNEKFKGKATFTADSSSNTAYMQLSSLTSEDSAVYYCARRGLLRFDCWGQGTTVTVSS
VL: DIQLTQSPAIMSASPGEKVTMTCRASSSVSSSYLHWYQQKSGASPKLWIYSSSTLASGVPARFSGSGSGTSYSLTISSVEAEDAATYYCQQYSGYPLTFGSGTKLGIKR
Consider B1, for which the binding result was “binds”.
